Some of the results follow.
Legend:
Test in all cases: glycan array binding signal (z-score within array); higher = stronger binding
Conditions in all cases: glycan notation: IUPAC condensed, linker removed
[1] = biological target: Neu5Ac(a2-6)Gal(b1-4)GlcNAc(b1-2)Man(a1-3)[Man(a1-6)]Man(b1-4)GlcNAc(b1-4)GlcNAc
How it was run: (§1)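 The Consortium for Functional Glycomics database supplied 3228 glycan arrays, of which those lacking an available protein sequence were dropped. The binding signal, a within-array Z-score, was averaged across arrays of the same protein sequence and across linkers. Negative scores can be read as non-binding.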

[2] = biological target: Neu5Ac(a2-6)Gal(b1-4)GlcNAc(b1-2)Man(a1-3)[Neu5Ac(a2-3)Gal(b1-4)GlcNAc(b1-2)Man(a1-6)]Man(b1-4)GlcNAc(b1-4)GlcNAc
How it was run: as §1

[3] = biological target: Neu5Ac(a2-6)Gal(b1-4)GlcNAc(b1-2)Man(a1-3)[Neu5Ac(a2-6)Gal(b1-4)GlcNAc(b1-2)Man(a1-6)]Man(b1-4)GlcNAc(b1-4)GlcNAc
How it was run: as §1

[4] = biological target: Neu5Ac(a2-6)Gal(b1-4)GlcNAc(b1-2)Man(a1-3)[Neu5Ac(a2-6)Gal(b1-4)GlcNAc(b1-2)Man(a1-6)]Man(b1-4)GlcNAc(b1-4)[Fuc(a1-6)]GlcNAc
How it was run: as §1

[5] = biological target: Neu5Ac(a2-6)Gal(b1-4)GlcNAc(b1-2)Man(a1-6)Man(b1-4)GlcNAc(b1-4)GlcNAc
How it was run: as §1

[6] = biological target: Neu5Ac(a2-6)Gal(b1-4)GlcNAc(b1-2)Man(a1-6)[Gal(b1-4)GlcNAc(b1-2)Man(a1-3)]Man(b1-4)GlcNAc(b1-4)GlcNAc
How it was run: as §1

[7] = biological target: Neu5Ac(a2-6)Gal(b1-4)GlcNAc(b1-2)Man(a1-6)[GlcNAc(b1-2)Man(a1-3)]Man(b1-4)GlcNAc(b1-4)GlcNAc
How it was run: as §1

[8] = biological target: Neu5Ac(a2-6)Gal(b1-4)GlcNAc(b1-2)Man(a1-6)[Man(a1-3)]Man(b1-4)GlcNAc(b1-4)GlcNAc
How it was run: as §1

[9] = biological target: Neu5Ac(a2-6)Gal(b1-4)GlcNAc(b1-2)[Neu5Ac(a2-6)Gal(b1-4)GlcNAc(b1-4)]Man(a1-3)[GlcNAc(b1-4)][Neu5Ac(a2-6)Gal(b1-4)GlcNAc(b1-2)[Neu5Ac(a2-6)Gal(b1-4)GlcNAc(b1-6)]Man(a1-6)]Man(b1-4)GlcNAc(b1-4)GlcNAc
How it was run: as §1

[10] = biological target: Neu5Ac(a2-6)Gal(b1-4)GlcNAc(b1-2)[Neu5Ac(a2-6)Gal(b1-4)GlcNAc(b1-4)]Man(a1-3)[GlcNAc(b1-4)][Neu5Ac(a2-6)Gal(b1-4)GlcNAc(b1-4)Man(a1-6)]Man(b1-4)GlcNAc(b1-4)GlcNAc
How it was run: as §1

[11] = biological target: Neu5Ac(a2-6)Gal(b1-4)GlcNAc(b1-2)[Neu5Ac(a2-6)Gal(b1-4)GlcNAc(b1-6)]Man(a1-6)[Neu5Ac(a2-6)Gal(b1-4)GlcNAc(b1-2)Man(a1-3)][GlcNAc(b1-4)]Man(b1-4)GlcNAc(b1-4)GlcNAc
How it was run: as §1

[12] = biological target: Neu5Ac(a2-6)Gal(b1-4)GlcNAc(b1-3)Gal(b1-3)GlcNAc
How it was run: as §1

[13] = biological target: Neu5Ac(a2-6)Gal(b1-4)GlcNAc(b1-3)Gal(b1-4)GlcNAc
How it was run: as §1

[14] = biological target: Neu5Ac(a2-6)Gal(b1-4)GlcNAc(b1-3)Gal(b1-4)GlcNAc(b1-2)Man(a1-3)[Neu5Ac(a2-6)Gal(b1-4)GlcNAc(b1-3)Gal(b1-4)GlcNAc(b1-2)Man(a1-6)]GalNAc
How it was run: as §1

[15] = biological target: Neu5Ac(a2-6)Gal(b1-4)GlcNAc(b1-3)Gal(b1-4)GlcNAc(b1-3)Gal(b1-4)GlcNAc
How it was run: as §1

[16] = biological target: Neu5Ac(a2-6)Gal(b1-4)GlcNAc(b1-3)Gal(b1-4)GlcNAc(b1-3)Gal(b1-4)GlcNAc(b1-2)Man(a1-3)[Neu5Ac(a2-6)Gal(b1-4)GlcNAc(b1-3)Gal(b1-4)GlcNAc(b1-3)Gal(b1-4)GlcNAc(b1-2)Man(a1-6)]GalNAc
How it was run: as §1

[17] = biological target: Neu5Ac(a2-6)Gal(b1-4)GlcNAc(b1-3)Gal(b1-4)GlcNAc(b1-3)GalNAc
How it was run: as §1

[18] = biological target: Neu5Ac(a2-6)Gal(b1-4)GlcNAc(b1-3)Gal(b1-4)GlcNAc(b1-3)[Neu5Ac(a2-6)Gal(b1-4)GlcNAc(b1-3)Gal(b1-4)GlcNAc(b1-6)]GalNAc
How it was run: as §1

[19] = biological target: Neu5Ac(a2-6)Gal(b1-4)GlcNAc(b1-3)Gal(b1-4)GlcNAc(b1-6)[Gal(b1-3)]GalNAc
How it was run: as §1

[20] = biological target: Neu5Ac(a2-6)Gal(b1-4)GlcNAc(b1-3)Gal(b1-4)[Fuc(a1-3)]GlcNAc(b1-3)Gal(b1-4)[Fuc(a1-3)]GlcNAc
How it was run: as §1

[21] = biological target: Neu5Ac(a2-6)Gal(b1-4)GlcNAc(b1-3)GalNAc
How it was run: as §1

[22] = biological target: Neu5Ac(a2-6)Gal(b1-4)GlcNAc(b1-3)[Neu5Ac(a2-6)Gal(b1-4)GlcNAc(b1-6)]GalNAc
How it was run: as §1

[23] = biological target: Neu5Ac(a2-6)Gal(b1-4)GlcNAc(b1-6)GalNAc
How it was run: as §1

[24] = biological target: Neu5Ac(a2-6)Gal(b1-4)GlcNAc(b1-6)[Gal(b1-3)GlcNAc(b1-3)]Gal(b1-4)Glc
How it was run: as §1

[25] = biological target: Neu5Ac(a2-6)Gal(b1-4)GlcNAc(b1-6)[Gal(b1-3)]GalNAc
How it was run: as §1

[26] = biological target: Neu5Ac(a2-6)Gal(b1-4)GlcNAc6S
How it was run: as §1

[27] = biological target: Neu5Ac(a2-6)GalNAc
How it was run: as §1

[28] = biological target: Neu5Ac(a2-6)GalNAc(b1-4)GlcNAc
How it was run: as §1

[29] = biological target: Neu5Ac(a2-6)GalNAc(b1-4)GlcNAc6S
How it was run: as §1

[30] = biological target: Neu5Ac(a2-6)GlcNAc(b1-4)GlcNAc
How it was run: as §1

[31] = biological target: Neu5Ac(a2-6)GlcNAc(b1-4)GlcNAc(b1-4)GlcNAc
How it was run: as §1

B1: EUL D1A second (Oryza sativa) (protein)
chain: GAATACTIGGVPVHTVRVFSAAGEDYCLTVRNGTACLAPKNPRDDYQHWIKDMRHSNKIRDEEGYPAFALVNKVTGEAIKHSTGQGHPVKLVPYNPEYQDESVLWTESKDVGKGFRCIRMVNNIYLNFDAFHGDKDHGGIHDGTEIVLWKWCEGDNQRWKILPWILEQKLISEEDLNSAVDHHHHHH
glycan array binding signal (z-score) [1]: 0.117
glycan array binding signal (z-score) [2]: -0.939
glycan array binding signal (z-score) [3]: -0.148
glycan array binding signal (z-score) [4]: 2.19
glycan array binding signal (z-score) [5]: 0.375
glycan array binding signal (z-score) [6]: 0.343
glycan array binding signal (z-score) [7]: 0.587
glycan array binding signal (z-score) [8]: 0.268
glycan array binding signal (z-score) [9]: 1.71
glycan array binding signal (z-score) [10]: 0.628
glycan array binding signal (z-score) [11]: -0.994
glycan array binding signal (z-score) [12]: 1.03
glycan array binding signal (z-score) [13]: 0.827
glycan array binding signal (z-score) [14]: -0.214
glycan array binding signal (z-score) [15]: -2.05
glycan array binding signal (z-score) [16]: 1.31
glycan array binding signal (z-score) [17]: 0.615
glycan array binding signal (z-score) [18]: 2.08
glycan array binding signal (z-score) [19]: -0.232
glycan array binding signal (z-score) [20]: -0.371
glycan array binding signal (z-score) [21]: 0.463
glycan array binding signal (z-score) [22]: 2.81
glycan array binding signal (z-score) [23]: 1.01
glycan array binding signal (z-score) [24]: 0.242
glycan array binding signal (z-score) [25]: 0.124
glycan array binding signal (z-score) [26]: -2.01
glycan array binding signal (z-score) [27]: -0.843
glycan array binding signal (z-score) [28]: -1.36
glycan array binding signal (z-score) [29]: -0.158
glycan array binding signal (z-score) [30]: -0.238
glycan array binding signal (z-score) [31]: -0.278

— the supplement of paper PMC8728848
